Some of the results follow. Small differences around the control level are noise.

Protein sequences, listed by entry. Tags and fused reporters are not part of them. Lines headed by an entry give the natural chain unless they say otherwise; changes in a name come on top.
UniProt Q9UIF7: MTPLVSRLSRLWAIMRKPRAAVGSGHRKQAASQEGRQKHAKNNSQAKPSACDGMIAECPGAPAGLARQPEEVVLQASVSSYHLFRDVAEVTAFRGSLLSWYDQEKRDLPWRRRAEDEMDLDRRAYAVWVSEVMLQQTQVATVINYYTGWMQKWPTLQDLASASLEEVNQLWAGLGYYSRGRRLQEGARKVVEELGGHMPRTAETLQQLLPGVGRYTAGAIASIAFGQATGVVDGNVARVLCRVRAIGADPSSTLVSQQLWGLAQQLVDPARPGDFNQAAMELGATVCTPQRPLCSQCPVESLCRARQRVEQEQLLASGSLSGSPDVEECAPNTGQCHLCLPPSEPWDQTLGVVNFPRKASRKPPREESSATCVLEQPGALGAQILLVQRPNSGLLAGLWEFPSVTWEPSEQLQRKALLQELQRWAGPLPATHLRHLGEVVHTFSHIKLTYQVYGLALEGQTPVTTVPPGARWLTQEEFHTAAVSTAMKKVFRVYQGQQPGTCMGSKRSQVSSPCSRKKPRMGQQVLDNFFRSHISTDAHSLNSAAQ
UniProt Q9UI10, whole entry: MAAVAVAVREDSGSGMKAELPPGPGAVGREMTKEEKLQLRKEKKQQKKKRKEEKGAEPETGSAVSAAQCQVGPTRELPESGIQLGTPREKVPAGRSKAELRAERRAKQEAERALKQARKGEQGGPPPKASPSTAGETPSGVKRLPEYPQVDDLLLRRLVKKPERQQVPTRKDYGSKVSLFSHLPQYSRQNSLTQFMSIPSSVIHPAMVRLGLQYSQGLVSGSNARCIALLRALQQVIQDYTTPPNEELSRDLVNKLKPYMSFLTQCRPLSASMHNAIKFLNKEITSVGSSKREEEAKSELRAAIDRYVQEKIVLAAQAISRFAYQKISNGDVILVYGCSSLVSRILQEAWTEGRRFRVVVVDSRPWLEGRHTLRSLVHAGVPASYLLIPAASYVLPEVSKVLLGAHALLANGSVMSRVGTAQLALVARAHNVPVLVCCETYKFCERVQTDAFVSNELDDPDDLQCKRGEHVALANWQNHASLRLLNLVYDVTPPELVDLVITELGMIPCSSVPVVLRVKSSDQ
UniProt Q9UNK0: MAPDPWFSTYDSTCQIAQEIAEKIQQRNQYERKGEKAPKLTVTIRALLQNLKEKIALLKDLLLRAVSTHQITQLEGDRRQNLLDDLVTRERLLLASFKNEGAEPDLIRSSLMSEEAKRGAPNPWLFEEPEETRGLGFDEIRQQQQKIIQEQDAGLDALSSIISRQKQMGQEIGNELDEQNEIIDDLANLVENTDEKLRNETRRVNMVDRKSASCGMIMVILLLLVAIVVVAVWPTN
UniProt Q9UKY1: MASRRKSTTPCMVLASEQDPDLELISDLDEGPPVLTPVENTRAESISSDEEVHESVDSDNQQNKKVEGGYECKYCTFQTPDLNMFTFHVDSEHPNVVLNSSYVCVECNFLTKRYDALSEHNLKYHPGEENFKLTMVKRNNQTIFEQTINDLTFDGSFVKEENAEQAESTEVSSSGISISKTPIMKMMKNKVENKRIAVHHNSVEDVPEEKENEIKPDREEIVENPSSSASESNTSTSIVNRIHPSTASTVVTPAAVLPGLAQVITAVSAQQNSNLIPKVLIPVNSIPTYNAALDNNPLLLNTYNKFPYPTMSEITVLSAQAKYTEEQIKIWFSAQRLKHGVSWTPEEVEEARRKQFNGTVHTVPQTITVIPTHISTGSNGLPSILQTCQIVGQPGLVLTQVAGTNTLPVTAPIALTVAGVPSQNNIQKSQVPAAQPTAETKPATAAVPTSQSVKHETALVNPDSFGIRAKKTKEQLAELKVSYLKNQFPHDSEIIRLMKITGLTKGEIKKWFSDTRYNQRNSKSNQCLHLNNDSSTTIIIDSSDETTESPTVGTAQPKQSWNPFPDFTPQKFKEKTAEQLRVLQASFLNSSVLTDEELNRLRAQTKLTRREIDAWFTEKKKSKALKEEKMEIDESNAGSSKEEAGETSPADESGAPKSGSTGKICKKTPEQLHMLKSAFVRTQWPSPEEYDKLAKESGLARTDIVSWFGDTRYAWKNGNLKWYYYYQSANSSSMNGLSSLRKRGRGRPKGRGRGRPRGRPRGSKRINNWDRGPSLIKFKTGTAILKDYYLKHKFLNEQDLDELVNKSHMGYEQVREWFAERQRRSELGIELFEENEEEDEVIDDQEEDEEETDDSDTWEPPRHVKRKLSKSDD
UniProt Q9UPT9: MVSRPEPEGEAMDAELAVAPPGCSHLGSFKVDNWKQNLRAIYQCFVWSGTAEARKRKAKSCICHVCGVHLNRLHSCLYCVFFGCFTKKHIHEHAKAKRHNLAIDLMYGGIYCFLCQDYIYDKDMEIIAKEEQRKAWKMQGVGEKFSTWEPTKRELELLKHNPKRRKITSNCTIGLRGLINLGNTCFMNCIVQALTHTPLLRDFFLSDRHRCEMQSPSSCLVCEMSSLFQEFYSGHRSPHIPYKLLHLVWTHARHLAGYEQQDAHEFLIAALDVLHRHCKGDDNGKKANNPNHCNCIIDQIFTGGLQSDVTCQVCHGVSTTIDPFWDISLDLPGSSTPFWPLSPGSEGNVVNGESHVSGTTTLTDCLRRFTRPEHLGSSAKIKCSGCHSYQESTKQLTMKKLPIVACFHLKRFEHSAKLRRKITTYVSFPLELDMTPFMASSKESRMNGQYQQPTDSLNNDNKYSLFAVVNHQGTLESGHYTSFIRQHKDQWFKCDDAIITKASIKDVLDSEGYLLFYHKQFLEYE
UniProt Q9UKY7: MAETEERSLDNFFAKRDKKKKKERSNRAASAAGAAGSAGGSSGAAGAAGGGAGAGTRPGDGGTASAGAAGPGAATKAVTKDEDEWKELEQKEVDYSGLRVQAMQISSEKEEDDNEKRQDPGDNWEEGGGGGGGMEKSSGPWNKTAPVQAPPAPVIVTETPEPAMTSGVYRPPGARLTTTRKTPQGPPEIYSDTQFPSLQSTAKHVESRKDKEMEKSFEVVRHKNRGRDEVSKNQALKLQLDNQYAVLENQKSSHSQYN
UniProt Q9UPN4: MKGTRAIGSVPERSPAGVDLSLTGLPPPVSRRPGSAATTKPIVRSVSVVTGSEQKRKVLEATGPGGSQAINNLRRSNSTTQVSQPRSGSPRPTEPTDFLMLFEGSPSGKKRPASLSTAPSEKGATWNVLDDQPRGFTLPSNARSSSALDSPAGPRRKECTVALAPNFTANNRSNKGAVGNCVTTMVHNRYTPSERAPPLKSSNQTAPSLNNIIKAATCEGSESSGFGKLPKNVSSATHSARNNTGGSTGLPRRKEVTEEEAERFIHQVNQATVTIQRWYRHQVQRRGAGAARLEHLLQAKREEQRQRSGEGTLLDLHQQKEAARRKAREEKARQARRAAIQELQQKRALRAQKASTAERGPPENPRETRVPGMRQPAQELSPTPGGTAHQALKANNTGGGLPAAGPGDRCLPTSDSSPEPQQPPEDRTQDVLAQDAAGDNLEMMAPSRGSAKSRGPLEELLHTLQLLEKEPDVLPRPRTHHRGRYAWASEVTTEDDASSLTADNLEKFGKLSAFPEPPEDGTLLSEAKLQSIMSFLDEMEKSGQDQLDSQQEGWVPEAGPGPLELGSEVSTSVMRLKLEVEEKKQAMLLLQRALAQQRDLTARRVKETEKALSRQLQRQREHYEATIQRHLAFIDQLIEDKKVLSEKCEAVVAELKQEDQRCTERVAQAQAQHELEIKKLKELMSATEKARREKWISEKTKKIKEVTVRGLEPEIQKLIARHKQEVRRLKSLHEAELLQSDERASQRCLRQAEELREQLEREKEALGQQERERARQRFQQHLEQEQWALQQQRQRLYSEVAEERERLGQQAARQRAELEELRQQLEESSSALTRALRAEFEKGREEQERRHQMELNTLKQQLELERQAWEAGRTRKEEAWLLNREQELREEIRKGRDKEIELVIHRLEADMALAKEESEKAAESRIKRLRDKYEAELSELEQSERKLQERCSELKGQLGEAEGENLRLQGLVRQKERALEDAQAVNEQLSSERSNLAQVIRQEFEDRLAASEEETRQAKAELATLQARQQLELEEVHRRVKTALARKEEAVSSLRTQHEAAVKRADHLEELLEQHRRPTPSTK
UniProt Q9UNP9: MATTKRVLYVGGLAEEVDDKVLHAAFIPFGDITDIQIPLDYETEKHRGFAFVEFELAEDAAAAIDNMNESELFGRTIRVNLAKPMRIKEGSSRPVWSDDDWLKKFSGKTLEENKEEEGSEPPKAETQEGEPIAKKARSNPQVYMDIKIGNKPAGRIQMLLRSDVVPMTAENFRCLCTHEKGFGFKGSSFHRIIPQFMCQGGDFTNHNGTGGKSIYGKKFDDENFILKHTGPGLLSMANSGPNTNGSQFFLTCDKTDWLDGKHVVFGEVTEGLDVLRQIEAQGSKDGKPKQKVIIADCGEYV
UniProt Q9UHK0: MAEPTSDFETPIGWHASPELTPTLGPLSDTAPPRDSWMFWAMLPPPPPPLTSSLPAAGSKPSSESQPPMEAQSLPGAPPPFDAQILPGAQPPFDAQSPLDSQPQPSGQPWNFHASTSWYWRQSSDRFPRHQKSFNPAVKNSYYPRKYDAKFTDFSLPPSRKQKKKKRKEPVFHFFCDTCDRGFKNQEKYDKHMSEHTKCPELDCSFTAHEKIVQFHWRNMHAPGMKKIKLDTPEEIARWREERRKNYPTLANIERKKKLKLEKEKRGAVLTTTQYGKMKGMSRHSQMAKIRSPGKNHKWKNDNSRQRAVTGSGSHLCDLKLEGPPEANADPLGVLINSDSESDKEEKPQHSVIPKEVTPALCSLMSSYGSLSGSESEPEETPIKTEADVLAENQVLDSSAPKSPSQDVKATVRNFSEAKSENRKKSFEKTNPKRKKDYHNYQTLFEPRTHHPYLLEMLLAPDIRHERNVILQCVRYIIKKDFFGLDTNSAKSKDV
UniProt Q9UMS4: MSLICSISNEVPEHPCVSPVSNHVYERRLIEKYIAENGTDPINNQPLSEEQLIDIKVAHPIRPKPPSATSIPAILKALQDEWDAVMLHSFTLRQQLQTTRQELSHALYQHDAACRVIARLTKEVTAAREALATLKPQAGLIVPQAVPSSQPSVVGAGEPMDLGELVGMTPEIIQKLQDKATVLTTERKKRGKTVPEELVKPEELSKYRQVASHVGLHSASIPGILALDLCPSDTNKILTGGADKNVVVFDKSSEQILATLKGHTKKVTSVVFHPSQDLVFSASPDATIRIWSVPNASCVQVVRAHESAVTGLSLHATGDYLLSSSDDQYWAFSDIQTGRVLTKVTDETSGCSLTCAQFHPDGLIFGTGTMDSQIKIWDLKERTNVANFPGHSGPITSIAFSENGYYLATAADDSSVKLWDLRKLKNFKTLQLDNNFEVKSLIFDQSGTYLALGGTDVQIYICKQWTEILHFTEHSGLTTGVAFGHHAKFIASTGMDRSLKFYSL
UniProt Q9UL15: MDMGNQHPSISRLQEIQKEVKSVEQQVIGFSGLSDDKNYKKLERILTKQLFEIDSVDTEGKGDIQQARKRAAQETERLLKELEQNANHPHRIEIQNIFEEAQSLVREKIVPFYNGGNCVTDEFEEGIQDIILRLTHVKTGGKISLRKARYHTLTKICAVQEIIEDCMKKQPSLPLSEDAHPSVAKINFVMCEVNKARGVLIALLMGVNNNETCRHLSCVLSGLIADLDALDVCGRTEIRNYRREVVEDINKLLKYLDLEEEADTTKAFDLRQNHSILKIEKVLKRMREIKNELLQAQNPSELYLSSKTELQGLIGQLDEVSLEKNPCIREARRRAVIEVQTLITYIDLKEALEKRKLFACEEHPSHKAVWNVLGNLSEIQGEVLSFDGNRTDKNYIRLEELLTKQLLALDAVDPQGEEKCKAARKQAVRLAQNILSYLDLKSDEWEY
UniProt Q9UMY1: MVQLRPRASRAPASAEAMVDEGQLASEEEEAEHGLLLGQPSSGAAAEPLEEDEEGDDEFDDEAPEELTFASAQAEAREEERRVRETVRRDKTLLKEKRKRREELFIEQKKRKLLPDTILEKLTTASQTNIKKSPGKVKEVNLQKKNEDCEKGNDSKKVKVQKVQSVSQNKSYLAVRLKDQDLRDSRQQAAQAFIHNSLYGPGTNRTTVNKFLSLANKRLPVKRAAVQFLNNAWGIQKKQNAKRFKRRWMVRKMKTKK
UniProt Q9UHQ4: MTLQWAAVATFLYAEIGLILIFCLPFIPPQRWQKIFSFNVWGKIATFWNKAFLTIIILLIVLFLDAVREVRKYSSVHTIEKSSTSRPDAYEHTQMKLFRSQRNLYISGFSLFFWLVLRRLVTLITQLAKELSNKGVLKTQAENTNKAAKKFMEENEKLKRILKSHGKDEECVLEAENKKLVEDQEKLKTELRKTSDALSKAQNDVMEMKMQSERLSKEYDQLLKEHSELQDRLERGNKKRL
UniProt Q9UIL1: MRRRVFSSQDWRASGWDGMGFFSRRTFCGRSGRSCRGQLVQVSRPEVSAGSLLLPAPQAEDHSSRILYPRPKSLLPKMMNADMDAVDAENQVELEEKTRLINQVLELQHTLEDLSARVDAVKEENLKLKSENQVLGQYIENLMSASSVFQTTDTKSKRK

Compound in the test: Cc1nc(Nc2ncc(C(=O)Nc3c(C)cccc3Cl)s2)cc(N2CCN(CCO)CC2)n1 [dasatinib]
The experiment in a line: log2 fold change of tryptic peptide abundance, ligand vs vehicle (limited proteolysis) (log2 ratio); higher = more trypsin-susceptible (destabilized). Particulars: ligand concentration: 5 uM; sample: K562 cleared lysate.
“UniProt Q9UIF7 (peptide sequence: SHISTDAHSLNSAAQ, peptide start residue: 532)”: the log2 fold change is 0.238.
For “RWDD2A (peptide sequence: HKSEHVFQILFGIESK, peptide start residue: 273) (UniProt Q9UIY3)” the value was -0.157; for “EIF2B4 (peptide sequence: ASPSTAGETPSGVK, peptide start residue: 129) (UniProt Q9UI10)”, -0.0669.
Turning to “MRTO4 (peptide sequence: LFGYEMAEFK, peptide start residue: 192) (UniProt Q9UKD2)”, the log2 fold change worked out at 0.0738.
With “EGFL7 (peptide sequence: VAPNPTGVDSAMKEEVQR, peptide start residue: 185) (UniProt Q9UHF1)”, the log2 fold change was determined as 0.241.
On to “STX8 (peptide sequence: GLGFDEIR, peptide start residue: 134) (UniProt Q9UNK0)”, for which the log2 fold change was determined as 0.114.
To “ZHX1 (peptide sequence: YDALSEHNLK, peptide start residue: 114) (UniProt Q9UKY1)” belongs -0.222; to “USP22 (peptide sequence: QHKDQWFKCDDAIITK, peptide start residue: 486) (UniProt Q9UPT9)”, 0.359.
As for “LEF1 (peptide sequence: LQESASGTGPR, peptide start residue: 383) (UniProt Q9UJU2)”, the log2 fold change was -0.209.
To “UniProt Q9ULH7 (peptide sequence: GLPVSGTKPDLIER, peptide start residue: 405)” belongs -0.182; to “CDV3 (peptide sequence: DEDEWKELEQK, peptide start residue: 81) (UniProt Q9UKY7)”, 0.289; to “UniProt Q9UPN4 (peptide sequence: TRKEEAWLLNR, peptide start residue: 874)”, -0.308.
To “PPIE (peptide sequence: VNLAKPMR, peptide start residue: 79) (UniProt Q9UNP9)” belongs 0.0527.
For the target “NUFIP1 (peptide sequence: FTDFSLPPSRK, peptide start residue: 151) (UniProt Q9UHK0)”, the log2 fold change is -0.242.
For “FEZ2 (peptide sequence: SHMPGTYLTTVIPYEK, peptide start residue: 296) (UniProt Q9UHY8)” the value was -0.376; for “AMFR (peptide sequence: LNQHNHFFHFDGSR, peptide start residue: 415) (UniProt Q9UKV5)”, 0.266; for “PRPF19 (peptide sequence: TVPEELVKPEELSK, peptide start residue: 193) (UniProt Q9UMS4)”, -0.175.
For “BLOC1S6 (peptide sequence: FKECHSMLDINALFAEAK, peptide start residue: 92) (UniProt Q9UL45)” the value was 0.417; for “UniProt Q9UK11 (peptide sequence: DVMLENFR, peptide start residue: 35)”, -0.235; for “BAG5 (peptide sequence: KQPSLPLSEDAHPSVAK, peptide start residue: 169) (UniProt Q9UL15)”, 0.228.
For “NOL7 (peptide sequence: KLLPDTILEK, peptide start residue: 112) (UniProt Q9UMY1)” the value was -0.31; for “SRRM2 (peptide sequence: YSHSGSSSPDTK, peptide start residue: 967) (UniProt Q9UQ35)”, -0.705; for “BAZ1B (peptide sequence: FSDFLLDPYK, peptide start residue: 288) (UniProt Q9UIG0)”, 0.202.
In the case of “BCAP29 (peptide sequence: LVEDQEKLK, peptide start residue: 180) (UniProt Q9UHQ4)”, the log2 fold change was -0.342.
“SCOC (peptide sequence: VDAVKEENLK, peptide start residue: 118) (UniProt Q9UIL1)”: the log2 fold change is -0.0189.
In the case of “UniProt Q9ULD4 (peptide sequence: IVEVDIDGR, peptide start residue: 40)”, the log2 fold change was -0.401.

The record behind these values is the supplement of paper PMC12819154, “High-throughput peptide-centric local stability assay extends protein–ligand identification to membrane proteins, tissues and bacteria” (Nature Structural & Molecular Biology, 2025).
